In PMC9682698 one finds binding data, which are given here for four substances.

Protein sequences, listed by entry. Tags and fused reporters are not part of them.
UniProt P56757: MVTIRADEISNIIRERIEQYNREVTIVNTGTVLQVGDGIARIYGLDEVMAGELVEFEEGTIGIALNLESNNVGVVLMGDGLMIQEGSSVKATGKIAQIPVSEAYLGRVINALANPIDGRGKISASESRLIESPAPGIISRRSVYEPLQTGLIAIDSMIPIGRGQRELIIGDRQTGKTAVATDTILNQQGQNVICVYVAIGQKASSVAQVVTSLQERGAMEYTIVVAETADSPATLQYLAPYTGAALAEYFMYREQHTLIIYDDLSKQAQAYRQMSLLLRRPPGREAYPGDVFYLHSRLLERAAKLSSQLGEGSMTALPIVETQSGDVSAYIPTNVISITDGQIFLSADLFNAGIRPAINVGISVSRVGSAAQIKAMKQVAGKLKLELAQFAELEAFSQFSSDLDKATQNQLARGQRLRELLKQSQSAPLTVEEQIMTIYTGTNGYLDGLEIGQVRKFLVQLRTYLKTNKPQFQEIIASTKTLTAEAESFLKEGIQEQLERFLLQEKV
UniProt P19366: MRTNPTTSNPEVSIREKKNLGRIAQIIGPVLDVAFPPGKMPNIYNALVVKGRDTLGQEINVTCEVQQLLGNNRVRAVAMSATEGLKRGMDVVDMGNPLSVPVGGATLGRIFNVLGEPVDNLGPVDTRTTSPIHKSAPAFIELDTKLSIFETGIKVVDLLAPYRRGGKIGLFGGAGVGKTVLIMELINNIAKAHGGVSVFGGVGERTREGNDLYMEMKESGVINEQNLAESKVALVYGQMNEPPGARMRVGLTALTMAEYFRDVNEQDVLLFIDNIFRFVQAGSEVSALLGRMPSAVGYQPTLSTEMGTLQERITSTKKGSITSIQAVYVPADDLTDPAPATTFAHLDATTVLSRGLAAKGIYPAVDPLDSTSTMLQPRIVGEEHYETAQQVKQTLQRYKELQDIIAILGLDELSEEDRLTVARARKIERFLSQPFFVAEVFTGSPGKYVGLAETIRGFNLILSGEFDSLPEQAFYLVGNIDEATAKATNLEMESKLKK
UniProt Q8W4E2: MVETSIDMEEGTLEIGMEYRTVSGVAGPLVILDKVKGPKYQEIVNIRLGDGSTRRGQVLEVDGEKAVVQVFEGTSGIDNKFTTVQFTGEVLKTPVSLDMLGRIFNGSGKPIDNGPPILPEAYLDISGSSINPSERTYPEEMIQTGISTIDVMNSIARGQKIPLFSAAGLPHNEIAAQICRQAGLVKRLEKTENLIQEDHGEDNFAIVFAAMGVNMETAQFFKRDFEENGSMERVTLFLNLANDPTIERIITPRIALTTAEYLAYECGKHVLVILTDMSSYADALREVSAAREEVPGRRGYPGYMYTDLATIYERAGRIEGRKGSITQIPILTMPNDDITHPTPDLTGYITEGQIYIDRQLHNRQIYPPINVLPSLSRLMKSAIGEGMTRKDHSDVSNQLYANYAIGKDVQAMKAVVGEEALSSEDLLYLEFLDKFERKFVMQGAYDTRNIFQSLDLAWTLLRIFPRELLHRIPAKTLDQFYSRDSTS
UniProt F4JTQ0: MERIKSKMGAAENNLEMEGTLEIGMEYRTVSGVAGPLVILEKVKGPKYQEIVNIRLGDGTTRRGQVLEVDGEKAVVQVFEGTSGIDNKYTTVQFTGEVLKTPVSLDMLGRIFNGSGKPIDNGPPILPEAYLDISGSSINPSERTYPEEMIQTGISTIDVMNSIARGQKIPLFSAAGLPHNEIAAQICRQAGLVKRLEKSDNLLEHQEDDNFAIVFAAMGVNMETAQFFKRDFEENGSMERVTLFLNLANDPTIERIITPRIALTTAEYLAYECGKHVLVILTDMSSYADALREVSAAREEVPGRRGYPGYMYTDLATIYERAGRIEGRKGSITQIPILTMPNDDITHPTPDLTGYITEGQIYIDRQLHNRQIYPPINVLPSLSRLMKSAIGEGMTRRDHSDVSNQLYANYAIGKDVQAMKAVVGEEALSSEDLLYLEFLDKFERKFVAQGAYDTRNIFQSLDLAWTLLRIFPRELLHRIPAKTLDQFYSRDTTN

Results are given in words; binding and its absence hold for the method and conditions named. Binding seen in cells or lysates may run through a third protein. A yes stands for co-enrichment or nearness to the bait. Other partners may have been found.

In this test the target is GFP-PmACRE1 (Avr9/Cf-9 rapidly elicited protein 1 of Pinus massoniana) (Pinus massoniana). Briefly: affinity purification with mass spectrometry; leaf proteins of T3 homozygous PmACRE1-OX transgenic A. thaliana incubated with GFP-Trap agarose (ChromoTek); vector control line as control; SDS-PAGE, trypsin, LC-MS/MS (Orbitrap Fusion Lumos), Proteome Discoverer against UniProt.
Turning to “ATP synthase subunit alpha, chloroplastic (from UniProt P56757 1-507)”, the binding result is given as “binds”.

Turning to “ATP synthase subunit beta, chloroplastic (from UniProt P19366 1-498)”, the binding result was “binds”.

As for “V-type proton ATPase subunit B3 (from UniProt Q8W4E2 1-487)”, the binding entry is recorded as “binds”.

In the case of “Vacuolar proton pump subunit B (from UniProt F4JTQ0 1-494)”, the binding result is on record as “binds”.
